# Results taken from patent publication US20110059051A1.
# Chains of the proteins cited; added tags and fusions are not shown. Lines headed by an entry give the natural chain unless they say otherwise; changes in a name come on top.
# UniProt A2A935: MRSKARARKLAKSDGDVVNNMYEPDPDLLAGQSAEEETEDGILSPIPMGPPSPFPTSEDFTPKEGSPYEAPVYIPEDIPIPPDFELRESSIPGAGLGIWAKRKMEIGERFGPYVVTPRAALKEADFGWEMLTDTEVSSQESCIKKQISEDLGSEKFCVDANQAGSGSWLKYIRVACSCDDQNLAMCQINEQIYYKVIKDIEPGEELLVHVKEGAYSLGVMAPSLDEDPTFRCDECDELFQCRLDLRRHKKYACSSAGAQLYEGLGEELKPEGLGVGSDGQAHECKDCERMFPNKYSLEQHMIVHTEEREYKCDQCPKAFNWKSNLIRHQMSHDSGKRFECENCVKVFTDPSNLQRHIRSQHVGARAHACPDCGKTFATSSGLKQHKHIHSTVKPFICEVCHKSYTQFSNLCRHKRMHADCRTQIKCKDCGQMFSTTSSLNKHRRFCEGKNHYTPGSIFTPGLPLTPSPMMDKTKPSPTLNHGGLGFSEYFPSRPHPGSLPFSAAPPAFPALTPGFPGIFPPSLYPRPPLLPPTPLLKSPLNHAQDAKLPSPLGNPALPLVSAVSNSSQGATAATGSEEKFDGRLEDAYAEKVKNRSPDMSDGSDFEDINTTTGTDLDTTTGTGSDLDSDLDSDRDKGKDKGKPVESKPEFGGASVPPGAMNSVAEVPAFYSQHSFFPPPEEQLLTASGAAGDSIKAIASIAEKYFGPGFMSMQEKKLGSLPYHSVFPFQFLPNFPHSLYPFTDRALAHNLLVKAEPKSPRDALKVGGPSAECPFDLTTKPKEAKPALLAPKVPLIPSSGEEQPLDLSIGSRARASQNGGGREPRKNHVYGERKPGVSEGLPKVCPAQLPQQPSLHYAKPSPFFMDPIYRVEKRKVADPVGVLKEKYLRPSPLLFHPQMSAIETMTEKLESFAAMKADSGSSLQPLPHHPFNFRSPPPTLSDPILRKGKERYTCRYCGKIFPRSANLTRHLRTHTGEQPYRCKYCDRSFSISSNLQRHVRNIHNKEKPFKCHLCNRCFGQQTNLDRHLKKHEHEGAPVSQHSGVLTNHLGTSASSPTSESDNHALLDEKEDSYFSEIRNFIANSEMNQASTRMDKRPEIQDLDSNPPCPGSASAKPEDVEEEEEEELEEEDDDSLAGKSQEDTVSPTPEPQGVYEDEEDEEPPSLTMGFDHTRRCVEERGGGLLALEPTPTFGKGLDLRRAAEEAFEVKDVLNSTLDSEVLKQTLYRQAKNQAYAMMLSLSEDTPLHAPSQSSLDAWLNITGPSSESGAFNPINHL
# No constants are given. Whether binding was seen depends on the method and setting. Binding seen in cells or lysates may run through a third protein. Some entries that bind do so weakly or less than the wild type. For some assays here: Tags and fused reporters may be left off the sequences shown.
# How the values were obtained:
# [1] = molecular target: T1, endogenous PGC-1α protein in brown adipocytes (mouse) (UniProt O70343); experiment: co-immunoprecipitation from brown adipocytes (flag-M2 agarose IP, anti-PGC-1α blot)
# T1 sequence (looked up): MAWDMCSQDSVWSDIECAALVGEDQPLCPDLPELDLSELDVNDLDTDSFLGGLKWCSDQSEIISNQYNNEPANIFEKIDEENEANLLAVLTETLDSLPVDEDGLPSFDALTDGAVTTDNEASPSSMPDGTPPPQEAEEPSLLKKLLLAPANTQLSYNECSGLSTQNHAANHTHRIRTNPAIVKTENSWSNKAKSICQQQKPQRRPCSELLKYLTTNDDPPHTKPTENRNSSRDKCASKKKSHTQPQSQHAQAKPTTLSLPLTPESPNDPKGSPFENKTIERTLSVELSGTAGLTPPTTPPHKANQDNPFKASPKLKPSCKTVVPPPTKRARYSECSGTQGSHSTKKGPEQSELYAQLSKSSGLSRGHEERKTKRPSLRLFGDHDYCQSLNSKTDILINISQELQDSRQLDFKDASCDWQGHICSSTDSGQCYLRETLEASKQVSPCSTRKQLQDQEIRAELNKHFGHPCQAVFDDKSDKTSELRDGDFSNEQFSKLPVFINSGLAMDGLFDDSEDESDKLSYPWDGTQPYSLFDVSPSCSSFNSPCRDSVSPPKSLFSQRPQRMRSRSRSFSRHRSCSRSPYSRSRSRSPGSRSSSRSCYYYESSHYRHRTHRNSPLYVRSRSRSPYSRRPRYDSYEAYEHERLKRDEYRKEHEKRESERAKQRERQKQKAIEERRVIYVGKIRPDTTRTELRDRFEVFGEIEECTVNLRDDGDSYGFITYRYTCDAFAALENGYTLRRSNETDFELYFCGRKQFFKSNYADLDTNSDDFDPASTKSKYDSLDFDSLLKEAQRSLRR
# HA-PGC-1α = molecular target: T2, HA-PGC-1α (UniProt O70343); experiment: co-immunoprecipitation from cos7 cells
# T2 sequence (looked up): T1 sequence (looked up)
# [2] = molecular target: T1, endogenous PGC-1α protein in brown adipocytes (mouse); experiment: co-immunoprecipitation of Flag-PRDM16 from brown fat preadipocytes, Western blot for PGC-1α
# [3] = molecular target: T3, GST-PGC-1α region 250-400 (UniProt O70343); experiment: GST pull-down with GST-PGC-1α fragments, 35S-labeled PRDM16
# T3 sequence (looked up): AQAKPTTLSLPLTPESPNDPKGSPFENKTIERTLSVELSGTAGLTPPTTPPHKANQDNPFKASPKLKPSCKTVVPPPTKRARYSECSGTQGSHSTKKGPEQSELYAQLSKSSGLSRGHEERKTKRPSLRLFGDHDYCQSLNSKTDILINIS
# [4] = molecular target: T4, GST-PGC-1α region 590-797 (UniProt O70343); experiment: as above
# T4 sequence (looked up): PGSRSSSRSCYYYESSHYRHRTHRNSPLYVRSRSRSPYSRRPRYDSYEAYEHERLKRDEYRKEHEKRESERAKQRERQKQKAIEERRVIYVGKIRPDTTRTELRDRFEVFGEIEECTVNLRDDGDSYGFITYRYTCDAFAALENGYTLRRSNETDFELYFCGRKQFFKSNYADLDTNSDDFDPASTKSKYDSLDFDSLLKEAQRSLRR
binding [1],binding (HA-PGC-1α),binding [2],binding [3],binding [4],Substance
binds,binds,binds,,,Flag-PRDM16 (full-length mouse PRDM16 with N-terminal FLAG tag) (from UniProt A2A935 1-1275)
,,,binds,binds,35S-labeled in vitro translated PRDM16 protein (from UniProt A2A935 1-1275)
